Measured values: publication PMC9950477
These are yes or no findings as the source states them, for the method shown. Binding seen in cells or lysates may run through a third protein.

By UniProt entry, the sequences of proteins in these tests, tags left out.
UniProt O43248: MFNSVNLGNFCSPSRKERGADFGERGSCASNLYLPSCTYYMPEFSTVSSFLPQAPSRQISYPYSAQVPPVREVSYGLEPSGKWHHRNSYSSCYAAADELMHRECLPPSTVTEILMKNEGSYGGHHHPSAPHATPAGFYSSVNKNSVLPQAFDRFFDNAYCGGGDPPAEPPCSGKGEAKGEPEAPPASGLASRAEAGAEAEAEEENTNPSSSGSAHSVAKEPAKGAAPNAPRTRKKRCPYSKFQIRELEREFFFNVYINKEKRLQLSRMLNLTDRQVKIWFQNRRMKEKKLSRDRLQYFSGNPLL

Molecular target: T1, ubiquitin-specific protease 8 (USP8) (UniProt P40818)
T1 sequence: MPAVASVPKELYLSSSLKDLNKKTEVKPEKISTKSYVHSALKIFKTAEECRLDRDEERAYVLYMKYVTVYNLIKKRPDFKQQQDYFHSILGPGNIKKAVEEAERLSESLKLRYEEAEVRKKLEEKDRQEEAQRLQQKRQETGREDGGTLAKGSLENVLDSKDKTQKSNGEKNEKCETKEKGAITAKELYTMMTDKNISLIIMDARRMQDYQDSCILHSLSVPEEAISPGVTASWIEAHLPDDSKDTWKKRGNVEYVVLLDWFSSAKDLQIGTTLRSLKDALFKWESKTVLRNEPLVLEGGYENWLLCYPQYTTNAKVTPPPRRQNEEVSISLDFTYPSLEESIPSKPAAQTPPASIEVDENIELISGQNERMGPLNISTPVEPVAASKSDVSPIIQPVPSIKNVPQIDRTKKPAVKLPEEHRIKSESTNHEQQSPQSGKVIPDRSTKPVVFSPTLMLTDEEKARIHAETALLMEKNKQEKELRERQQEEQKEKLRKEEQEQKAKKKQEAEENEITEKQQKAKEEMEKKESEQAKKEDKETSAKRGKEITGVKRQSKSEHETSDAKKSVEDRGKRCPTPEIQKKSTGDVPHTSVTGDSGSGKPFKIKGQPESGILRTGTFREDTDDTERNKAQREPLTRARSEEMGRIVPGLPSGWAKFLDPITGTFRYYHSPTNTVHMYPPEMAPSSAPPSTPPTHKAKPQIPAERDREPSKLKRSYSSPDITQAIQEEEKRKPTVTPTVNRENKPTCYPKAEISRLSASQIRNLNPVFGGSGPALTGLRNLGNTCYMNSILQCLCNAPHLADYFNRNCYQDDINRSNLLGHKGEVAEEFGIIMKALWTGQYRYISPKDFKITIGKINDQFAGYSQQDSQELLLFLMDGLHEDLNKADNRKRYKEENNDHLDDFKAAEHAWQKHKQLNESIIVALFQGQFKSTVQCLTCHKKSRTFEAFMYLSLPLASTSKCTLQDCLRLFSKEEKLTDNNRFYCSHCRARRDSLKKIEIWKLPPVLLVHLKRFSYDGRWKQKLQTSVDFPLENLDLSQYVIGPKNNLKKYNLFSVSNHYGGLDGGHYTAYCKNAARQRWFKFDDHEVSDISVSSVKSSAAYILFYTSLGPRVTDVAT
Experiment: co-IP; cell lysate in IP lysis buffer with protease inhibitor, 2000 μg protein, 1 μl primary antibody or IgG, Protein A + G Agarose, 4 °C overnight, washed with cold PBS three times, detected by blot; cell line and precipitating antibody not given

binding: no binding
Substance: Homeobox C11 (HOXC11) (from UniProt O43248 1-304)
